Experiment [1] deals with T1, RelB (mouse (endogenous in BMDM-derived TAM)) (UniProt Q04863).
T1 sequence: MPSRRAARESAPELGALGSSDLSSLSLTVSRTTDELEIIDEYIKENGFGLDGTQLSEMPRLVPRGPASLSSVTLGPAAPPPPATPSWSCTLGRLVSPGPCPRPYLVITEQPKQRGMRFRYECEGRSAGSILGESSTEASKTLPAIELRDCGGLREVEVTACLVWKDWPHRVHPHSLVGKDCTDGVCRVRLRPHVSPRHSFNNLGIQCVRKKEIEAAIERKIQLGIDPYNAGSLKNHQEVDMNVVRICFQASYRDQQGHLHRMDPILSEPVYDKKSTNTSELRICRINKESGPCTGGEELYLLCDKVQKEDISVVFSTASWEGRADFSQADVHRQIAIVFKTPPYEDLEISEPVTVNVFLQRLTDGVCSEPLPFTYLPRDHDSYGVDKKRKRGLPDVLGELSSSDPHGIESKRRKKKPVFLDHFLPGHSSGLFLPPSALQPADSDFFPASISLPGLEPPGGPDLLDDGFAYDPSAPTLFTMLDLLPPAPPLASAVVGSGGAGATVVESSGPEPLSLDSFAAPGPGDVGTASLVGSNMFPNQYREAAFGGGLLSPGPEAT
Briefly: co-IP; immunoprecipitation with RelB antibody from baicalin-treated TAM; immunoblotting; IP samples normalised by RelB.

Sequences of proteins named here, by UniProt entry; tags and fusion partners are left off.
UniProt Q9Z1E3: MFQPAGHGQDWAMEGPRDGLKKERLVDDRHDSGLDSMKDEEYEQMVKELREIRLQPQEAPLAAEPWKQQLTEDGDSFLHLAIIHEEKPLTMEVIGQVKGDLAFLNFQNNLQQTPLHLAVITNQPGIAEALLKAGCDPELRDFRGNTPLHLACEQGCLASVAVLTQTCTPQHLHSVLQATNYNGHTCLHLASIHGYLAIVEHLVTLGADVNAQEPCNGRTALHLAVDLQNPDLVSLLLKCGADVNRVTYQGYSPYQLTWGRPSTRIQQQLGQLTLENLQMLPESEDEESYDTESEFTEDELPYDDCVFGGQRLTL
UniProt Q99J83: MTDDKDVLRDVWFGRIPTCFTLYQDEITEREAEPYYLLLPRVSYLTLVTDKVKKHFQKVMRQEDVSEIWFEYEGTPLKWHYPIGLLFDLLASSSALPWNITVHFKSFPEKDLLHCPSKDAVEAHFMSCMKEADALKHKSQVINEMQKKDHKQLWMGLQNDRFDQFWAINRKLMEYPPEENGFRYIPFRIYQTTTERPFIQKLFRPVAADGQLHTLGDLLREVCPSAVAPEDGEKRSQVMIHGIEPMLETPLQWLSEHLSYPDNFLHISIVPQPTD

The target in experiment [2] is T1, RelB (mouse (endogenous in BMDM-derived TAM)). Briefly: co-IP; immunoprecipitation with RelB antibody from TAM treated with or without baicalin; immunoblotting; IP samples normalised by RelB.
For experiment [3], the target named is T2, TRAF2 (mouse (endogenous in BMDM-derived TAM)) (UniProt P39429).
T2 sequence: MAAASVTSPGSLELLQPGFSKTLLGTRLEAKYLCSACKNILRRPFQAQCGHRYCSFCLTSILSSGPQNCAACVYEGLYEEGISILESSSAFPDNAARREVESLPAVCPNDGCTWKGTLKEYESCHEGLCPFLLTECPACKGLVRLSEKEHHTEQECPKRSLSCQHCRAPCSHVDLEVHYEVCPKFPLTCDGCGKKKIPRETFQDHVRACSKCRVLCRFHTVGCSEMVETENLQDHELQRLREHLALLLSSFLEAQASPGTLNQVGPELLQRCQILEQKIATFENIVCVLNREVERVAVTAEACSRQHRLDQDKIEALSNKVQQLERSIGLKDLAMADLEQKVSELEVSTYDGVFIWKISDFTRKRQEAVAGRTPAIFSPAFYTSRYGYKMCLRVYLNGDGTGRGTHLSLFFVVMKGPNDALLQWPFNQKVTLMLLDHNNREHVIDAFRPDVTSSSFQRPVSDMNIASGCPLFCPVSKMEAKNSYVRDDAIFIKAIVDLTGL
In words: co-IP; immunoprecipitation with LC3 and TRAF2 antibody from TAM after baicalin intervention (Supplementary Figure S6).

Experiment [4] concerns the target T1, RelB (mouse (endogenous in BMDM-derived TAM)). Briefly: co-IP; immunoprecipitation with RelB antibody from TAM treated with or without baicalin; immunoblotting; IP samples normalised by RelB. The source holds these as a separate data set. On the technique in general: Immunoblotting shows a protein as a band on a membrane.

These are yes or no findings as the source states them, for the method shown. Binding seen in cells or lysates may run through a third protein. Some entries that bind do so weakly or less than the wild type.

Regarding IκBα (from UniProt Q9Z1E3 1-314), the binding result in experiment [1] is given as “no binding (condition: with baicalin treatment)”; in experiment [2] it was “binds”.

For Atg5 (from UniProt Q99J83 1-275), the binding result in experiment [3] is listed as “binds”.

B1: p52 (protein, UniProt Q9WTK5 1-454)
chain: MDNCYDPGLDGIPEYDDFEFSPSIVEPKDPAPETADGPYLVIVEQPKQRGFRFRYGCEGPSHGGLPGASSEKGRKTYPTVKICNYEGPAKIEVDLVTHSDPPRAHAHSLVGKQCSELGVCAVSVGPKDMTAQFNNLGVLHVTKKNMMEIMIQKLQRQRLRSKPQGLTEAERRELEQEAKELKKVMDLSIVRLRFSAFLRASDGSFSLPLKPVISQPIHDSKSPGASNLKISRMDKTAGSVRGGDEVYLLCDKVQKDDIEVRFYEDDENGWQAFGDFSPTDVHKQYAIVFRTPPYHKMKIERPVTVFLQLKRKRGGDVSDSKQFTYYPLVEDKEEVQRKRRKALPTFSQPFGGGSHMGGGSGGSAGGYGGAGGGGSLGFFSSSLAYNPYQSGAAPMGCYPGGGGGAQMAGSRRDTDAGEGAEEPRTPPEAPQGEPQALDTLQRAREYNARLFGLA
Take B1: the binding result in experiment [4] is given as “binds”.

For the origin of these results see PMC4632300.
